# Laboratory results: the supplement of paper PMC8104966
# Values joined by “and” are separate entries in the source; they are usually repeats but may differ in a detail not shown here. Equal entries are not always repeated. The list shows a part of the results. Repeats in this data set agree poorly, so a single value says little.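 U2OS cells expressing ACE2 were combined with U2OS cells expressing full-length spike, and imaging quantified fusion as the fraction of nuclei displaying both cell types' fluorescent markers. Non-toxic compounds with a fusion z-score under -3, i.e., over three standard deviations below the plate's DMSO wells, are called inhibitory hits.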
# System: U2OS ACE2 x SARS-CoV-2 spike co-culture
# Assay: cell-cell fusion (fraction fused) z-score vs plate DMSO control; higher = more fusion
# Conditions: 30 µM; 5 h; toxicity class: non-toxic, passed QC
row,SMILES,cell-cell fusion (z-score)
1,COC(=O)C1[C@H]2C[C@H]3c4[nH]c5ccccc5c4CCN3C[C@@H]2CC[C@@H]1O.Cl (stereo partly specified),inactive: 1.7
2,N#Cc1ccc2[nH]c(O)c(-c3ccc(CN4CCOCC4)cn3)c2c1,inactive: 2.72
3,N=C(N)NS(=O)(=O)c1ccc(N)cc1,inactive: 2.35
4,NC(=O)N[C@@H](CCC(=O)O)C(=O)O [Carbaglu],inactive: 3.54
5,COc1ccc2c(=O)c(CC(=O)O)coc2c1,inactive: 1.84
6,CC(N)=O [Acetamide],inactive: 1.01
7,N#C[C@@H]1C[C@@H]2C[C@@H]2N1C(=O)[C@@H](N)C12CC3CC(CC(O)(C3)C1)C2.O [Saxagliptin hydrate],inactive: 2.77
8,COc1cccc(-c2cc(=O)c3ccccc3o2)c1N,inactive: -0.124
9,Cl.Clc1ccc(CCCOCCCN2CCCCC2)cc1 [Pitolisant hydrochloride],inactive: 0.685
10,CC(=O)OCC(CCn1cnc2cnc(N)nc21)COC(C)=O,inactive: 3.08
11,CC(=O)OCC(CCn1cnc2cnc(N)nc21)COC(C)=O [Famciclovir],inactive: 2.42
12,O=C1CCC(N2C(=O)c3ccccc3C2=O)C(=O)N1 (stereo unspecified) [Thalidomide],inactive: 2.24
13,Cc1cnc(NC(=O)C2=C([O][Na])c3ccccc3S(=O)(=O)N2C)s1 [Meloxicam sodium],inactive: 3.06
14,COC(=O)[C@@H]1[C@H]2C[C@H]3c4[nH]c5ccccc5c4CCN3C[C@@H]2CC[C@@H]1O.Cl [Yohimbine hydrochloride],inactive: 1.65
15,CP(=O)([O-])C1=CC[NH2+]CC1,inactive: 0.219
16,O=C([O-])C[C@H](O)C[C@H](O)/C=C/c1c(C2CC2)nc2ccccc2c1-c1ccc(F)cc1.[Ca+2],inactive: 4.11
17,CCCn1c(=O)[nH]c(=O)c2[nH]cnc21 [3-n-Propylxanthine],inactive: 2.4
18,Cc1ccc(C(=O)Nc2ccc(CN3CCN(C)CC3)c(C(F)(F)F)c2)cc1C#Cc1cnc2cccnn12,inactive: 1.89
19,CCCCCCOC(=O)NC(=N)c1ccc(NCc2nc3cc(C(=O)N(CCC(=O)OCC)c4ccccn4)ccc3n2C)cc1 [Dabigatran etexilate],inactive: -1.51
20,CN(C)[C@@H]1C(O)=C(C(N)=O)C(=O)[C@@]2(O)C(O)=C3C(=O)c4c(O)cccc4[C@@](C)(O)[C@H]3[C@H](O)[C@@H]12 [Oxytetracycline],inactive: 3.66
21,Cc1cc(C(C)(C)C)c(O)c(C)c1CC1=NCCN1.Cl [Oxymetazoline hydrochloride],inactive: 2.34
22,O=C(NCO)c1cccnc1,inactive: 1.93
23,FC(F)(Cl)C(F)(F)Cl,inactive: 0.277
24,OCC1O[C@H](O)C(Cl)C(O)C1O (stereo partly drawn) [2-Chloro-2-deoxy-D-glucose],inactive: 3.29
25,N#CC(C#N)=C(N)/C(C#N)=C/c1ccc(O)cc1 [Tyrphostin AG 112],inactive: 3.39
26,O=C1c2ccccc2C(=O)C1c1ccccc1 [Phenylindione],inactive: 2.43

# Six records picked at random from the list so far:
row,SMILES,cell-cell fusion (z-score)
23,FC(F)(Cl)C(F)(F)Cl,inactive: 0.277
4,NC(=O)N[C@@H](CCC(=O)O)C(=O)O [Carbaglu],inactive: 3.54
17,CCCn1c(=O)[nH]c(=O)c2[nH]cnc21 [3-n-Propylxanthine],inactive: 2.4
15,CP(=O)([O-])C1=CC[NH2+]CC1,inactive: 0.219
1,COC(=O)C1[C@H]2C[C@H]3c4[nH]c5ccccc5c4CCN3C[C@@H]2CC[C@@H]1O.Cl (stereo partly specified),inactive: 1.7
26,O=C1c2ccccc2C(=O)C1c1ccccc1 [Phenylindione],inactive: 2.43

# The listing continues:

row,SMILES,cell-cell fusion (z-score)
1,Cc1cc2c(s1)Nc1ccccc1N=C2N1CCN(C)CC1 [Olanzapine],inactive: 2.72
2,C=C(C)[C@@H]1[C@H]2OC(=O)[C@@H]1[C@]1(O)C[C@H]3O[C@]34C(=O)O[C@H]2[C@]14C.CC(C)(O)[C@@H]1[C@H]2OC(=O)[C@@H]1[C@]1(O)C[C@H]3O[C@]34C(=O)O[C@H]2[C@]14C [Picrotoxin],inactive: 3.26
3,CCCCOc1cc(C(=O)NCCN(CC)CC)c2ccccc2n1.Cl,inactive: -0.12
4,C[C@@]1(C2CCCC2)Cc2cc(OCC(=O)O)c(Cl)c(Cl)c2C1=O,inactive: 2.12
5,S=C(NCc1ccc2c(c1)OCO2)N1CCN(c2ncnc3c2oc2ccccc23)CC1 [Amuvatinib (MP-470)],inactive: 0.701
6,CCOC(=O)n1ccn(C)c1=S,inactive: 3.49
7,O=C(O)CCc1ccc(NCc2cccc(Oc3ccccc3)c2)cc1,inactive: 0.494
8,CC(S)C(=O)NCC(=O)O (stereo unspecified),inactive: 1.75
9,CC(C)(Oc1ccc(C2CC2(Cl)Cl)cc1)C(=O)O (stereo unspecified),inactive: 1.62
10,CC(C)(Oc1ccc(C2CC2(Cl)Cl)cc1)C(=O)O (stereo unspecified) [Ciprofibrate],inactive: 0.483
11,O=c1[nH]c(=O)n([C@H]2C[C@H](O)[C@@H](CO)O2)cc1Br [5-Bromo-2'-deoxyuridine],inactive: 2.27
12,C=C(C)[C@@H]1CC[C@]2(C)CC[C@]3(C)[C@@H](CCC4[C@@]5(C)CC[C@H](OC(C)=O)C(C)(C)C5CC[C@]43C)C12 (stereo partly specified),inactive: 2.18
13,CC1(C)S[C@@H]2[C@H](NC(=O)[C@H](NC(=O)N3CCNC3=O)c3ccccc3)C(=O)N2C1C(=O)[O-].[Na+] (stereo partly specified),inactive: 3.65
14,COc1ccc2nc(S(=O)Cc3ncc(C)c(OC)c3C)[nH]c2c1 (stereo unspecified) [Omeprazole],inactive: 1.92
15,Cc1ccccc1N1CCN(CCc2nnc3n2CCCC3)CC1.Cl [Dapiprazole Hydrochloride],inactive: 1.1
16,CC(C)c1ccc(CC(=O)N2CCC[C@@H](c3cccc(OC(C)(C)C(=O)[O-])c3)C2)cc1.[Na+],inactive: 0.806
17,Cc1cc(O)cc(O)c1C(=O)O,inactive: 3.2
18,N=C(N)NC(=N)Nc1ccccc1 [1-Phenylbiguanide],inactive: 2.23
19,Cl.N=C(N)N [Guanidine hydrochloride],inactive: 3.48
20,CCOC(=O)N[C@@H]1CC[C@@H]2[C@@H](C1)C[C@H]1C(=O)O[C@H](C)[C@H]1[C@H]2/C=C/c1ccc(-c2cccc(F)c2)cn1 [Vorapaxar],active: -6.15
21,Cn1cc(-c2[nH]c3cc(NC(=O)[C@H](N)C4CCCCC4)cc4c3c2C=NNC4=O)cn1,active: -10.7
22,Cl.Cl.Cn1cnc(CCN)c1 [1-Methylhistamine dihydrochloride],inactive: 2
23,CCOc1ccn(-c2ccc(F)cc2)c(=O)c1C(=O)Nc1ccc(Oc2ccnc(N)c2Cl)c(F)c1,inactive: 1.1 and inactive: 1.54
24,CO[C@H]1/C=C\C=C(\C)C(=O)NC2=CC(=O)C(NCCN(C)C)=C(C[C@@H](C)C[C@H](OC)[C@H](O)[C@@H](C)/C=C(\C)[C@@H]1OC(N)=O)C2=O.Cl [17-DMAG HCl (Alvespimycin)],inactive: 2.07
25,COc1ccc(C(C)=O)c(O)c1,inactive: 4.05
26,CCCCC[C@H](CC(=O)O)C(=O)O,inactive: 1.96

# Individual results from above:
# Entry of COc1ccc(C(C)=O)c(O)c1 under cell-cell fusion (z-score): inactive: 4.05
# Entry of Cl.Cl.Cn1cnc(CCN)c1 [1-Methylhistamine dihydrochloride] under cell-cell fusion (z-score): inactive: 2

# (listing goes on)

row,SMILES,cell-cell fusion (z-score)
1,CCCCC(CC)CCC(CC(C)C)OS(=O)(=O)[O-].[Na+] (stereo unspecified),inactive: 1.28
2,CCC(C)(C)c1ccc(CC(C)CN2C[C@@H](C)O[C@@H](C)C2)cc1.Cl (stereo partly specified),inactive: 5.34
3,O=C1C=CC(=O)c2ccccc21,inactive: 0.394
4,O=C(CNC(=O)c1ccc(Cl)cc1)NO,inactive: -0.0478
5,"CCCn1c(=O)c2[nH]c(C3CCCC3)nc2n(CCC)c1=O [8-Cyclopentyl-1,3-dipropylxanthine]",inactive: 3.46
6,CCOC(=O)c1ncn2c1CN(C)C(=O)c1cc(F)ccc1-2,inactive: 1.62
7,CSc1ccccc1N1CCN(CCCCCC(=O)NC2CCCc3ccccc32)CC1.Cl (stereo unspecified),inactive: 2.82
8,CC1(C)S[C@@H]2[C@H](NC(=O)Cc3ccccc3)C(=O)N2[C@H]1C(=O)[O-].[Na+] [Penicillin G sodium salt],inactive: 3.48
9,COc1cc2c(c3ccccc13)OC(C)(C)C=C2,inactive: 1.12
10,C#Cc1cccc(Nc2ncnc3cc(OCCOC)c(OCCO)cc23)c1.Cl,inactive: 0.142
11,CCCCc1ccc(C(=O)O)nc1 [Fusaric acid],inactive: 2.11
12,Nc1ncnc2c1c(-c1cccc(OCc3ccccc3)c1)cn2[C@H]1C[C@@H](CN2CCC2)C1,active: -9.58
13,CC(=O)Nc1nnc(S(N)(=O)=O)s1 [Acetazolamide],inactive: 1.27
14,CC(=O)Nc1nnc(S(N)(=O)=O)s1,inactive: 0.875
15,Oc1ccc(-c2nc(-c3ccc(F)cc3)c(-c3ccncc3)[nH]2)cc1,inactive: 0.442
16,CC(=O)c1c(C)c2cnc(Nc3ccc(N4CCNCC4)cn3)nc2n(C2CCCC2)c1=O.O=S(=O)(O)CCO [Palbociclib Isethionate],inactive: -1.46
17,C#CCN(C)CCCOc1ccc(Cl)cc1Cl.Cl [Clorgyline hydrochloride],inactive: 2.89
18,CCNC1CN(CCCOC)S(=O)(=O)c2sc(S(N)(=O)=O)cc21 (stereo unspecified),inactive: 1.78
19,C#C[C@@]1(O)CC[C@@H]2[C@H]3CCC4=CC(=O)CC[C@H]4[C@@H]3CC[C@]21CC.C#C[C@]1(O)CC[C@H]2[C@@H]3CCC4=CC(=O)CC[C@@H]4[C@H]3CC[C@@]21CC [Norgestrel],inactive: 3.09
20,CC(=O)OC1CC2CCC1(C)C2(C)C (stereo unspecified),inactive: 2.43
21,Cc1c(S(=O)(=O)[O-])oc2c1C(=O)C(=O)c1c-2ccc2c1CCCC2(C)C.[Na+],inactive: 1.26
22,Cl.c1ccc2cc(CC3=NCCN3)ccc2c1 [Naphazoline hydrochloride],inactive: 2.99
23,CCCn1c(=O)c2nc(C3CCCC3)[nH]c2n(CCC)c1=O,inactive: 2.74
24,CCCCc1oc2ccccc2c1C(=O)c1cc(I)c(OCCN(CC)CC)c(I)c1.Cl [Amiodarone hydrochloride],inactive: 0.862
